These are yes or no findings as the source states them, for the method shown. Some results given as binding are weak or reduced against the parent protein; the word gives no strength.
Columns and labels:
[1] = molecular target: C-terminally His-tagged N-formyl peptide receptor (UniProt P21462); assay: flow cytometry competition with 10 nM fMLFK-FITC on C-His FPR silica particles; peptide at 10^-5 M
[2] = molecular target: C-terminally His-tagged N-formyl peptide receptor (UniProt P21462); assay: spectrofluorometric competition with 1 nM fMLFK-FITC

The chains behind the UniProt entries cited, without tags or fusion partners. Where a name states a change or a piece, a line headed by the entry shows the natural chain unless it says otherwise. A line that says so, or that is headed by a name, gives the form on record, which may keep a tag or linker.
C-terminally His-tagged N-formyl peptide receptor (P21462, form named): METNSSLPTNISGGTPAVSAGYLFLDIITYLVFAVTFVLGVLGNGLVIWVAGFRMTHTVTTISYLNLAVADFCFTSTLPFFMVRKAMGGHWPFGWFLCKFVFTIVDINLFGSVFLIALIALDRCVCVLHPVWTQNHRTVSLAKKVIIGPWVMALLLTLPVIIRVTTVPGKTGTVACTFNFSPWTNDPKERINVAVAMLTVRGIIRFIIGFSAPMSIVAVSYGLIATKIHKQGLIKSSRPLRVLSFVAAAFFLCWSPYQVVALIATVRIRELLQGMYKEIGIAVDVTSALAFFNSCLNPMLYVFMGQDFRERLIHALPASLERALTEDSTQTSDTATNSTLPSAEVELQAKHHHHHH

FLFLF (N-terminal t-boc group) [tboc-phe-leu-phe-leu-phe]
binding [1]: binds | binding [2]: binds

From patent publication US7018846 (SCIENCE AND TECHNOLOGY CORPORATION UNM, dated 2006)
